Measurements as given in US5721338A (California Institute of Technology, priority 1995, dated 1998).

Experiment: general procedure: Fmoc solid-phase peptide synthesis; Pal-Peg-PS; DIPCDI/HOBT
Settings: whole synthesis, scale 34 umol

Cyclo(Amb-Cys)-Thr-Val-Thr-Nph
isolated mass: approximately 1 mg
